Drawing on the supplement of paper PMC8256030, this text covers percent viability for 15 compounds.

Each structure is given as a SMILES string. Several values for one entry are separate records, joined by “and”; a condition that tells them apart may be missing. Equal values may be shown once. Some of the results follow. This data set is noisy: repeats of one test often differ as much as different tests do.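 HEK293T cells were given each compound shortly before transfection with a reporter in which red mCherry is followed by the SARS-CoV-2 frameshift element and then GFP in the −1 frame, so GFP appears only after frameshifting.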

The test system of the test is HEK293T. Description: percent viability (nuclei count) relative to control; higher = more viable cells. The settings on record: 10 µM; 24 h.
For `CN(C)CC[C@@H](c1ccc(Cl)cc1)c1ccccn1` [dexchlorphenamine], the percent viability came out at 293%.
To `C#CCOC[C@H]1CO[C@](Cn2ccnc2)(c2ccc(Cl)cc2Cl)O1` [parconazole] belongs 81.3%.
For `CC(=O)OCC1=C(C(=O)O)N2C(=O)[C@@H](NC(=O)CSc3ccncc3)[C@H]2SC1` [cefapirin], the percent viability came to 333%.
With `CCC(C)n1ncn(-c2ccc(N3CCN(c4ccc(OCC5COC(Cn6cncn6)(c6ccc(Cl)cc6Cl)O5)cc4)CC3)cc2)c1=O` (stereo not given) [Itraconazole] the figure was 189%; with `COc1cc(O)cc(O)c1` [flamenol], 170%.
To `C/C=C(/C(=C/C)c1ccc(O)cc1)c1ccc(O)cc1` [dienestrol] belongs 163%; to `Oc1cccc(O)c1`, 168%.
In the case of `CNCCC(Oc1ccc(C(F)(F)F)cc1)c1ccccc1` (stereo not given) [fluoxetine], the percent viability was 382% and 297%.
Consider `O=C(O)CCc1nc2ccccc2[nH]1` [procodazole], for which the percent viability was found to be 60.1%.
For `NS(=O)(=O)c1cc(C(=O)NN2C[C@@H]3[C@H]4CC[C@H](C4)[C@@H]3C2)ccc1Cl` [tripamide], the percent viability was 228%.
For the compound `Cc1cc(NS(=O)(=O)c2ccc(N)cc2)no1` [Sulfamethoxazole], the percent viability amounted to 26.7%.
To `CNC(=N)NC(=O)Nc1c(C)cccc1C` [lidamidine] belongs 152%; to `CC(C)N(CCC(CCN1CCCCC1)(C(N)=O)c1ccccc1Cl)C(C)C` (stereo not given) [disobutamide], 85.8%.
Take `CSC[C@H](NC(=O)[C@H](Cc1ccccc1)NC(=O)N1CCOCC1)C(=O)N[C@@H](CC1CCCCC1)[C@@H](O)C(=O)OC(C)C` [terlakiren]: the percent viability is 179%.
With `NOCc1ccc(Br)c(O)c1` [brocresine] the figure was 289%.
